Measurements reported in PubChem BioAssay AID1508597 (Cure First, 2020)

Screen: 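Knock-downs altering ovarian cancer cell survival with or without PARP inhibitor rucaparib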 (primary screen)
System: human ovarian carcinoma lines grown from tumours: OCI-P5x (papillary serous) and OCI-C5x (clear cell)
Reagent: siRNA pool against human genes, 1.25 pmol siRNA per well
Duration: 72 h or 96 h, depending on the cell culture
Treatment: rucaparib 20 µM (about IC30) or vehicle, present until read-out
Rucaparib or vehicle: Vehicle
Cell line: OCI-P5x (serous)
Detection: 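Luminescent ATP-based viability assay read 72 or 96 h after transfection, depending on culture, given as normalised percent viability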
Scale: viability, normalised: higher = more viable cells remaining
Rule for the call: 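a well counts as a hit if its normalised viability is under 80 percent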
Calls: active = viability under 80%; inactive = viability 80% or more
Shown is an unselected part of the about 2,100 reagents, under one of the conditions tested. 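Calls flag viability under 80% in either arm, not effects specific to rucaparib; the reference for percent is not stated.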 No sequences are given here. The record does not give: the 100% reference.

no.	Gene	technical replicate	viability, normalised (%)	outcome
1	GNE	1	85.2	inactive
2	GNE	2	88.2	inactive
3	GNE	3	85.6	inactive
4	USP3	1	58.2	active
5	USP3	2	54	active
6	USP3	3	45.5	active
7	TRIM68	1	65.4	active
8	TRIM68	2	79.1	active
9	TRIM68	3	78.9	active
10	PMS2P4	1	86.8	inactive
11	PMS2P4	2	111	inactive
12	PMS2P4	3	108	inactive
13	ZZZ3	1	75.4	active
14	ZZZ3	2	84.2	inactive
15	ZZZ3	3	68.8	active
16	ZNF623	1	84.9	inactive
17	ZNF623	2	83.6	inactive
18	ZNF623	3	79.1	active
19	DCP2	1	67.7	active
20	DCP2	2	80.1	inactive
21	DCP2	3	72.3	active
22	IL23A	1	56.8	active
23	IL23A	2	67.6	active
24	IL23A	3	104	inactive

Sorted by “viability, normalised (%)” (lowest first): some entries from above
Gene	technical replicate	viability, normalised (%)	outcome
DCP2	1	67.7	active
DCP2	2	80.1	inactive
